Data from patent publication US10513723B2, “Decreasing ornithine production to decrease high mannose glycoform content of recombinant proteins” (AMGEN INC., priority 2014, dated 2019).

System: Cell line H (CHO cells expressing recombinant antibody)
Experiment: Small scale mock perfusion, % high mannose (HILIC glycan map) of the expressed recombinant glycoprotein
Assay type: cell-based, Chinese hamster
Settings: L-ornithine monohydrochloride 14.8, 6, 0.6 and 0 (control) mM in perfusion medium; FIG. 7
Protocol: Cell lines H was used in this study. Cells were maintained in 3 L Erlenmeyer shake flasks (Corning Life Sciences, Lowell, Mass.) with 1 L working volume and cultivated under standard humidified condition at 36° C., 5% CO2, and shaken at 70 rpm in an automatic CO2 incubator (Thermo Fisher Scientific, Waltham, Mass.). Cells were sub-cultured in a selective growth media containing a 500 nM concentration of methotrexate (MTX) every four days, and subsequently transferred, inoculated and cultured in a growth media for four days before being seeded in a 24 wells plate for the experiments described below. […] Different N-glycan species of antibodies were analyzed by hydrophilic-interaction liquid chromatography (HILIC). The purified antibodies were digested by N-glycosidase F (New England BioLabs, Ipswich, Mass.) at 37° C. for 2 hours to release the glycans. The released glycans were labeled with 2-aminobenzoic acid and cleaned up using GlycoClean S cartridges (Prozyme, […], Calif.). Purified glycans were then desalted and reconstituted in water for assay. HILIC chromatography was performed with a 100 mm×2.1 mm i.d BEH Glycan column using UPLC (Waters Corporation, Milford, Mass.) and the eluted glycans were detected, identified, and qualified by a fluorescence detector based on different elution times of different glycans.

With Cl.NCCC[C@H](N)C(=O)O [ornithine, L-ornithine monohydrochloride] as the molecule, how does the “% HMN (high mannose glycoform content)” value read?
Its value is “as the ornithine concentration was increased, the % HMN increased”.
